Results taken from US20240360242A1 (KISOJI BIOTECHNOLOGY, published 2024).
These are yes or no findings as the source states them, for the method shown. Some entries that bind do so weakly or less than the wild type.

Columns and labels:
Experiment in all cases: flow cytometry, 100 nM antibody, transiently transfected HEK cells, APC anti-human Fc
HEK-TROP2 Δ27-73 = biological target: T1, HEK-TROP2 Δ27-73 (human, UniProt P09758)
T1 construct: deletion of residues 27-73, transiently expressed on HEK cells
T1 sequence (membrane protein on transfected HEK cells, looked up): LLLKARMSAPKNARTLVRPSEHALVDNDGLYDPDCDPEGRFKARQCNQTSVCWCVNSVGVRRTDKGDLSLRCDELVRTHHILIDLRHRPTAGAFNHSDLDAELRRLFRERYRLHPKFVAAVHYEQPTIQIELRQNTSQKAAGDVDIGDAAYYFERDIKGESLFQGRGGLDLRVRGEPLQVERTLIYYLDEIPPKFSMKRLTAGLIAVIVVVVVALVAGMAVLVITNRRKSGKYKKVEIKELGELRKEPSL
Description: (§1) To determine the effect of TROP2 truncations on the binding ability of anti-TROP2 sdAbs, the HEK parental cells were transiently transfected with human TROP2 mutants by lipofectamine. 24 hours after transfection, cells were collected and stained with anti-TROP2 antibodies (FIG. 13A and FIG. 13B). In brief, 1×10⁵ cells were incubated with an Fc receptor blocking antibody (1/100 dilution) for 10 minutes at room temperature. Anti-TROP2 antibodies were diluted in FACS staining buffer to 100 nM and added and incubated with cells for 30 minutes on ice. After washing three times with FACS staining buffer, APC-conjugated secondary antibodies recognizing the human Fc region (Biolegend, Cat #410712) were mixed with cells. After staining for 30 minutes, cells were washed three times, followed by resuspension into 100 μL of 7-Amino-Actinomycin D (7-AAD) solution (BD Biosciences, Cat #559925).

HEK-TROP2 Δ27-66 = biological target: T2, HEK-TROP2 Δ27-66 (human, UniProt P09758)
T2 construct: deletion of residues 27-66, transiently expressed on HEK cells
T2 sequence (membrane protein on transfected HEK cells, looked up): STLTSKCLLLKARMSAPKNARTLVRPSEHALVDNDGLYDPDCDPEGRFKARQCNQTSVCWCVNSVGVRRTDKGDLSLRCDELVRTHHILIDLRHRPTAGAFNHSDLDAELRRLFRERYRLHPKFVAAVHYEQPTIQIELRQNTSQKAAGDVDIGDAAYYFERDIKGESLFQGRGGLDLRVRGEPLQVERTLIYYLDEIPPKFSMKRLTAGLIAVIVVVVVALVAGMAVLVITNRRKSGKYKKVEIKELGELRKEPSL
Description: as §1

HEK-TROP2 Δ27-114 = biological target: T3, HEK-TROP2 Δ27-114 (human, UniProt P09758)
T3 construct: deletion of residues 27-114, transiently expressed on HEK cells
T3 sequence (membrane protein on transfected HEK cells, looked up): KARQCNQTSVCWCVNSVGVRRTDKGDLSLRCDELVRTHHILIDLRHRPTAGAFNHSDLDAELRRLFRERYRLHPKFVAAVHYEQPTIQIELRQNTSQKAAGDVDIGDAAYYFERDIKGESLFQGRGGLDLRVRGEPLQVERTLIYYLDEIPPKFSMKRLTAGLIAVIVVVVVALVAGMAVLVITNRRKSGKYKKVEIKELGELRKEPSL
Description: as §1

HEK-TROP2 Δ27-146 = biological target: T4, HEK-TROP2 Δ27-146 (human, UniProt P09758)
T4 construct: deletion of residues 27-146, transiently expressed on HEK cells
T4 sequence (membrane protein on transfected HEK cells, looked up): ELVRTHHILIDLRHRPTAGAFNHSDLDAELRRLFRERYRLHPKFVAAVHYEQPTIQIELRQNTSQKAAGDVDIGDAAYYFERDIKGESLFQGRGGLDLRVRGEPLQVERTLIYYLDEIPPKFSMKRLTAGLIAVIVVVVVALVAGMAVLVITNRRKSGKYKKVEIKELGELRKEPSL
Description: as §1

HEK-TROP2 Δ27-126 = biological target: T5, HEK-TROP2 Δ27-126 (human, UniProt P09758)
T5 construct: deletion of residues 27-126, transiently expressed on HEK cells
T5 sequence (membrane protein on transfected HEK cells, looked up): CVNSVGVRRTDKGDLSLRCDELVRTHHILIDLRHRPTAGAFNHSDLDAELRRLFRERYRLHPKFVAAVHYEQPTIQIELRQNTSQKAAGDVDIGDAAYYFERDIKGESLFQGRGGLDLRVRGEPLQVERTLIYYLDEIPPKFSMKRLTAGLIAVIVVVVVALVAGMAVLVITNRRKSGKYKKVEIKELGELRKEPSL
Description: as §1

HEK-TROP2 Δ27-104 = biological target: T6, HEK-TROP2 Δ27-104 (human, UniProt P09758)
T6 sequence (membrane protein on transfected HEK cells, looked up): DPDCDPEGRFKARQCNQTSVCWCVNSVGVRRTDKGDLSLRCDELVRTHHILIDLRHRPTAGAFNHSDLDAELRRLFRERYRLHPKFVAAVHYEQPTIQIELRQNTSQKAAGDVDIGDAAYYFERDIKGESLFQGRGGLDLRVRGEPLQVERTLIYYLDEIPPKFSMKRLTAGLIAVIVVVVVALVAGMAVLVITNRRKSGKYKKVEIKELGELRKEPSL
Description: as §1

HEK-TROP2 Δ27-85 = biological target: T7, HEK-TROP2 Δ27-85 (human, UniProt P09758)
T7 construct: deletion of residues 27-85, transiently expressed on HEK cells
T7 sequence (membrane protein on transfected HEK cells, looked up): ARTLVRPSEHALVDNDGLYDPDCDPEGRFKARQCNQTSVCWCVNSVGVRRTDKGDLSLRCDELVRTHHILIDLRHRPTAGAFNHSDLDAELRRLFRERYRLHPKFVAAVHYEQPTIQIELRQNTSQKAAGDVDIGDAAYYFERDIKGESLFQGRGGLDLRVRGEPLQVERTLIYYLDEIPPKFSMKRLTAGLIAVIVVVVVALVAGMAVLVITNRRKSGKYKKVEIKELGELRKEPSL
Description: as §1

HEK-TROP2 Δ27-96 = biological target: T8, HEK-TROP2 Δ27-96 (human, UniProt P09758)
T8 construct: deletion of residues 27-96, transiently expressed on HEK cells
T8 sequence (membrane protein on transfected HEK cells, looked up): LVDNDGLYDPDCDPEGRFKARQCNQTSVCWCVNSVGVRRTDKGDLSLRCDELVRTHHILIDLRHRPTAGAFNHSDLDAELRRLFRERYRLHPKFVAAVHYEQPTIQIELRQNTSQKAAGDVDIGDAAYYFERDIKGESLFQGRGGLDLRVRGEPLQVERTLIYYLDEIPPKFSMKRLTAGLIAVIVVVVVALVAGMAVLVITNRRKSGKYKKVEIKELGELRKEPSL
Description: as §1

- binding (HEK-TROP2 Δ27-73): binds
- binding (HEK-TROP2 Δ27-66): binds
- binding (HEK-TROP2 Δ27-114): binds
- binding (HEK-TROP2 Δ27-146): binds
- binding (HEK-TROP2 Δ27-126): binds
- binding (HEK-TROP2 Δ27-104): binds
- binding (HEK-TROP2 Δ27-85): binds
- binding (HEK-TROP2 Δ27-96): binds
B1: KD006 (antibody, human IgG1, V domains shown)
VH: QVQLQESGGGLVQAGNSLRLSCVASVRTFSTKAMGWFRQAPGKEREFTAAISESGSTYYADSVKDRFTISRDNVKNTVYLQMNSLKPEDTAVYYCGVKWYSGSFDDTRSYDYWGQGTQVTVSS
notes: also called anti-TROP2 sdAb KD006
